PMC11582362
No constants are given. Whether binding was seen depends on the method and setting. For part of these data: In cells and extracts the contact can be indirect. Some results given as binding are weak or reduced against the parent protein; the word gives no strength. Where a sequence is shown, tags or fusion partners need not be part of it.

How the values were obtained:
[1] = target: full length ADAR1 p110, wild type (FLAG-tagged and HA-tagged copies) (human) (UniProt P55265); assay: co-IP; FLAG- and HA-tagged ADAR1 variants co-expressed in HEK293T cells; lysate treated with RNase A; FLAG M2 magnetic beads, 2 h at 4 °C, IP buffer 25 mM Tris-HCl pH 7.4, 150 mM NaCl, 1 mM EDTA, 1% NP-40, 5% glycerol; western blot with anti-HA
[2] = target: ADAR1-dsRBD3 interface mutant (V747A + D748Q + W768V + C773S), residues 708-801, uncleavable His6-tag (human) (UniProt P55265); assay: SEC-SAXS; BioSEC-3 column, 15 °C, 0.3 mL/min, 20 mM Na-phosphate pH 7.0, 100 mM NaCl, 2 mM 2-mercaptoethanol; His6-tag kept; both purified
[3] = target: ADAR1-dsRBD3 interface mutant (V747A + D748Q + W768V + C773S), residues 708-801, uncleavable His6-tag (human) (UniProt P55265); assay: SEC-MALS; SEC-MALLS, BioSEC-3 column, 25 °C, 0.4 mL/min, 20 mM Na-phosphate pH 7.0, 100 mM NaCl, 2 mM 2-mercaptoethanol; His6-tag kept; both purified

B1: full length ADAR1 p110, wild type (FLAG-tagged and HA-tagged copies) (enzyme, UniProt P55265-5 1-931)
chain: MAEIKEKICDYLFNVSDSSALNLAKNIGLTKARDINAVLIDMERQGDVYRQGTTPPIWHLTDKKRERMQIKRNTNSVPETAPAAIPETKRNAEFLTCNIPTSNASNNMVTTEKVENGQEPVIKLENRQEARPEPARLKPPVHYNGPSKAGYVDFENGQWATDDIPDDLNSIRAAPGEFRAIMEMPSFYSHGLPRCSPYKKLTECQLKNPISGLLEYAQFASQTCEFNMIEQSGPPHEPRFKFQVVINGREFPPAEAGSKKVAKQDAAMKAMTILLEEAKAKDSGKSEESSHYSTEKESEKTAESQTPTPSATSFFSGKSPVTTLLECMHKLGNSCEFRLLSKEGPAHEPKFQYCVAVGAQTFPSVSAPSKKVAKQMAAEEAMKALHGEATNSMASDNQPEGMISESLDNLESMMPNKVRKIGELVRYLNTNPVGGLLEYARSHGFAAEFKLVDQSGPPHEPKFVYQAKVGGRWFPAVCAHSKKQGKQEAADAALRVLIGENEKAERMGFTEVTPVTGASLRRTMLLLSRSPEAQPKTLPLTGSTFHDQIAMLSHRCFNTLTNSFQPSLLGRKILAAIIMKKDSEDMGVVVSLGTGNRCVKGDSLSLKGETVNDCHAEIISRRGFIRFLYSELMKYNSQTAKDSIFEPAKGGEKLQIKKTVSFHLYISTAPCGDGALFDKSCSDRAMESTESRHYPVFENPKQGKLRTKVENGEGTIPVESSDIVPTWDGIRLGERLRTMSCSDKILRWNVLGLQGALLTHFLQPIYLKSVTLGYLFSQGHLTRAICCRVTRDGSAFEDGLRHPFIVNHPKVGRVSIYDSKRQSGKTKETSVNWCLADGYDLEILDGTRGTVDGPRNELSRVSKKNIFLLFKKLCSFRYRRDLLRLSYGEAKKAARDYETAKNYFKKGLKDMGYGNWISKPQEEKNFYLCPV
B1 was tested, and the binding [1] was “binds”.

B2: ADAR1-dsRBD3 interface mutant (V747A + D748Q + W768V + C773S), residues 708-801, uncleavable His6-tag (domain or fragment, UniProt P55265 708-801)
chain: MMPNKVRKIGELVRYLNTNPVGGLLEYARSHGFAAEFKLAQQSGPPHEPKFVYQAKVGGRVFPAVSAHSKKQGKQEAADAALRVLIGENEKAER
B2 was tested, and the binding [2] was “no binding” and the binding [3] was “no binding”.
